Laboratory results as given in patent US20170267679A1, “[…] FUSED PYRIMIDINE COMPOUNDS AS INHIBITORS OF p97 COMPLEX” (Cleave Biosciences, Inc., priority 2016, published 2017).

System: Caco-2 cell monolayer
Conditions: pH 7.4, range over 12 inter-day experiments

CC(C)NCC(O)COc1ccc(CC(N)=O)cc1 (centres unmarked) [Atenolol]
Peff in pH 7.4 Caco-2, A B, Range (A to B): 0.69-1.80 x E−6 cm/sec | Peff in pH 7.4 Caco-2, B A, Range (B to A): 1.69-2.68 x E−6 cm/sec
